# According to the supplement of paper PMC12819154, “High-throughput peptide-centric local stability assay extends protein–ligand identification to membrane proteins, tissues and bacteria” (Nature Structural & Molecular Biology, 2025):
# The chains behind the UniProt entries cited, without tags or fusion partners. Where a name states a change or a piece, a line headed by the entry shows the natural chain unless it says otherwise.
# UniProt Q86WR7: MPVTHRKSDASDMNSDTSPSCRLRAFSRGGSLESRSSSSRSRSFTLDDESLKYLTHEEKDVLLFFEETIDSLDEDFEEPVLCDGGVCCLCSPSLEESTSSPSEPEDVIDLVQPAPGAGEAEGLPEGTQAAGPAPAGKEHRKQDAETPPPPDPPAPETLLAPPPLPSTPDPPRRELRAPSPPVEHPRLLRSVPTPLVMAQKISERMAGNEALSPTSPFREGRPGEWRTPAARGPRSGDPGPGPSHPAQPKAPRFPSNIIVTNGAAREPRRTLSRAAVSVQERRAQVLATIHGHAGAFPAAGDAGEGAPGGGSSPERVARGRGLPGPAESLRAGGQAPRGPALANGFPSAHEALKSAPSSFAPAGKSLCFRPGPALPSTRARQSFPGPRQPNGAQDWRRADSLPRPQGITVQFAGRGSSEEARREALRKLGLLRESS
# UniProt Q86VX9: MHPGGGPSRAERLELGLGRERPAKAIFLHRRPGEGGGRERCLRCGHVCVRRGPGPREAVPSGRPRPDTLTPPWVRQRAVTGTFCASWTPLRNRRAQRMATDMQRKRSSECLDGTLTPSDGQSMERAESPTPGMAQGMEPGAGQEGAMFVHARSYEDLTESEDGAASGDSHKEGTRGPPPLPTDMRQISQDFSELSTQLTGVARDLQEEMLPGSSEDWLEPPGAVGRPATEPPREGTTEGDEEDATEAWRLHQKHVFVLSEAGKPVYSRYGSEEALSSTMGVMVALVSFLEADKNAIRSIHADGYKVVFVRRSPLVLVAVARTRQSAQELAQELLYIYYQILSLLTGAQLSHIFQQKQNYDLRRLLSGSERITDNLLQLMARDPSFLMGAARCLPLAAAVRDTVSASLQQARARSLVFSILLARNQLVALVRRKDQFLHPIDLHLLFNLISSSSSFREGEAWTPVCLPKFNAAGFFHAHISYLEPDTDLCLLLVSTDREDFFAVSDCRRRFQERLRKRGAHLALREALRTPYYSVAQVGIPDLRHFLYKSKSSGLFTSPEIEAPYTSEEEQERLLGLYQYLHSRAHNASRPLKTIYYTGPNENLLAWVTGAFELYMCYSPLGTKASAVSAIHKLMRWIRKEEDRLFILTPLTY
# UniProt Q86VZ5: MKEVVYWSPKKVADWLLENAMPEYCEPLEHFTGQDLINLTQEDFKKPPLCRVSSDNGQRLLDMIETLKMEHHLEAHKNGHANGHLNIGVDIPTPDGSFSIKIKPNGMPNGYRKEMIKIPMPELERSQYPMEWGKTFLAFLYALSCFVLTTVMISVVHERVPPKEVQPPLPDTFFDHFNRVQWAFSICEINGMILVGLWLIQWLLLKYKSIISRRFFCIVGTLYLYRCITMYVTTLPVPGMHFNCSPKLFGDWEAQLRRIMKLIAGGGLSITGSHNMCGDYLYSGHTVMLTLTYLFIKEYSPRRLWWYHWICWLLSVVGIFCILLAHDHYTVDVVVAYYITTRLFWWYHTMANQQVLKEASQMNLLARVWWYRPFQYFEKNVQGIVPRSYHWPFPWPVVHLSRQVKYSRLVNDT
# UniProt Q8IYD1, whole entry: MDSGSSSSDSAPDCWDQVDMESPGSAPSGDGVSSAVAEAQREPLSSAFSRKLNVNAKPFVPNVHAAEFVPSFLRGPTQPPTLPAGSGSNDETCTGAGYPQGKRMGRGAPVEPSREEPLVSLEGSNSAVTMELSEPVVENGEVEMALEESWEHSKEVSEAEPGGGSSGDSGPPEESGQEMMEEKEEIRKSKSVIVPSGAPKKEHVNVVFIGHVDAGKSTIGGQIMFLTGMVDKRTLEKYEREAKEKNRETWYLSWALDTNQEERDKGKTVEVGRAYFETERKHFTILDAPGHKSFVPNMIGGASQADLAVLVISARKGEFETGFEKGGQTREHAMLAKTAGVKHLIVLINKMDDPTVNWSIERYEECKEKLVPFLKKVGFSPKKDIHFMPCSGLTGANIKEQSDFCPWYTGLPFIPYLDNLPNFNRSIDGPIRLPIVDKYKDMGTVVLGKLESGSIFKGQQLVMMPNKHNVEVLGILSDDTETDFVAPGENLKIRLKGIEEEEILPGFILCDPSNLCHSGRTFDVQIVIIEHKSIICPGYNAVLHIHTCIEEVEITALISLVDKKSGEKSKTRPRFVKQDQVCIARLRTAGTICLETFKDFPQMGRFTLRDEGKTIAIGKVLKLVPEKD
# UniProt Q8IXQ5, whole entry: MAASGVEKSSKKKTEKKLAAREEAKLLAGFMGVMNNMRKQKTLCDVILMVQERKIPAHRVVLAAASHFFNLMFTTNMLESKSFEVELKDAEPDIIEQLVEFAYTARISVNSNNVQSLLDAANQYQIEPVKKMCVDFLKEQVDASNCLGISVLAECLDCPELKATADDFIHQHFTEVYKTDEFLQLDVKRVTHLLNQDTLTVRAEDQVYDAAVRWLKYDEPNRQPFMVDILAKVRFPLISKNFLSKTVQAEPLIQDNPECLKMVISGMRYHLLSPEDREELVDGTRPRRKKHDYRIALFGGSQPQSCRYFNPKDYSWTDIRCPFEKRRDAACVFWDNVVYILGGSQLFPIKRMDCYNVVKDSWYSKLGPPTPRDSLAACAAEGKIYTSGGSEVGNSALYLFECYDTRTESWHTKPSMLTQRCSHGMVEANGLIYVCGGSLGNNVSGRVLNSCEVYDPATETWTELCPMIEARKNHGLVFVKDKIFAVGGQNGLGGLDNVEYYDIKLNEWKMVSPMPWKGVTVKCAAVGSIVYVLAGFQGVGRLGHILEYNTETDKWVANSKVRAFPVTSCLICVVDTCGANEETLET
# UniProt Q86X29: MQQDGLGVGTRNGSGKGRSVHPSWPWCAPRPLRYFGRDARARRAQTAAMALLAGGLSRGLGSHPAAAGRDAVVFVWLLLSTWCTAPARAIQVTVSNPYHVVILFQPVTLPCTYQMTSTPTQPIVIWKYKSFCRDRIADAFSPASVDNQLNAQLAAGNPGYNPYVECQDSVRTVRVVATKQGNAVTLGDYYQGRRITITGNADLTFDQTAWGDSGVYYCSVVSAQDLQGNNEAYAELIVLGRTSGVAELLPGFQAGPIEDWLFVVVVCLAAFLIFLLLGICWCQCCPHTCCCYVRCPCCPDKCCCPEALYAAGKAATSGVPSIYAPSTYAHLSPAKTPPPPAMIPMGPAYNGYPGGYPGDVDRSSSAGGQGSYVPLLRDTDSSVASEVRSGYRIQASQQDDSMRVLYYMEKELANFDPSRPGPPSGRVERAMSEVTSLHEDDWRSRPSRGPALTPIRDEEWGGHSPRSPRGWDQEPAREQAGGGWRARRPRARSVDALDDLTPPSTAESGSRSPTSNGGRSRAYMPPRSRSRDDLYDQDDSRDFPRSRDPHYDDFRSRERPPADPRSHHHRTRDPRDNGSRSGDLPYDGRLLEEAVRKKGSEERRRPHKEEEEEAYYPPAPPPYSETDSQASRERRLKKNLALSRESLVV
# UniProt Q86VQ1: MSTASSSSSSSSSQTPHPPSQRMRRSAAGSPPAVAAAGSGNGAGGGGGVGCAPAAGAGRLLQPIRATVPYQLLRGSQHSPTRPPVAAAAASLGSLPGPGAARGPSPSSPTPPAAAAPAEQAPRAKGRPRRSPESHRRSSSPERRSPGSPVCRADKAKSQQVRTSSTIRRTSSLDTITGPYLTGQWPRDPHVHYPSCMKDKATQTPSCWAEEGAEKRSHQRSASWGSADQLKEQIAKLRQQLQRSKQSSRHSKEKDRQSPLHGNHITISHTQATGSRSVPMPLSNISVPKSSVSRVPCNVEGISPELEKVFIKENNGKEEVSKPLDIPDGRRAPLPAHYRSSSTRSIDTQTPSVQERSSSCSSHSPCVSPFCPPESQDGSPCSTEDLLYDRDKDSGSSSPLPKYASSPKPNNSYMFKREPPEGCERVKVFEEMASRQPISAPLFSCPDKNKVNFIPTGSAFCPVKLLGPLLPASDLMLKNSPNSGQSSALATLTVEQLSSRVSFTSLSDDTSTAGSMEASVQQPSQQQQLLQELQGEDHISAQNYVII
# UniProt Q86W11: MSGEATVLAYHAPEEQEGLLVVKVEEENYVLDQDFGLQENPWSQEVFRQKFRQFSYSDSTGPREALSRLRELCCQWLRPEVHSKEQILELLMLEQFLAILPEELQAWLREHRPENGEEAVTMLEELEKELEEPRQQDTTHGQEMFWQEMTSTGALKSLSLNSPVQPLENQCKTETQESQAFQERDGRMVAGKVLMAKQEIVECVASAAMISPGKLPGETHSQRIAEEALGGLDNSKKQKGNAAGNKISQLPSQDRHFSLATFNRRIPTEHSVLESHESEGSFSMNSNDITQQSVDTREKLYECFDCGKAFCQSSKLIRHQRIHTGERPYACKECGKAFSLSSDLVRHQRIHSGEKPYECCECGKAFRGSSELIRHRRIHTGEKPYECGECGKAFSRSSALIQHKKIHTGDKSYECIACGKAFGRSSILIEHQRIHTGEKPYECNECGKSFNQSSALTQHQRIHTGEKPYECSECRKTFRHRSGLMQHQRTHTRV
# UniProt Q8IWX8: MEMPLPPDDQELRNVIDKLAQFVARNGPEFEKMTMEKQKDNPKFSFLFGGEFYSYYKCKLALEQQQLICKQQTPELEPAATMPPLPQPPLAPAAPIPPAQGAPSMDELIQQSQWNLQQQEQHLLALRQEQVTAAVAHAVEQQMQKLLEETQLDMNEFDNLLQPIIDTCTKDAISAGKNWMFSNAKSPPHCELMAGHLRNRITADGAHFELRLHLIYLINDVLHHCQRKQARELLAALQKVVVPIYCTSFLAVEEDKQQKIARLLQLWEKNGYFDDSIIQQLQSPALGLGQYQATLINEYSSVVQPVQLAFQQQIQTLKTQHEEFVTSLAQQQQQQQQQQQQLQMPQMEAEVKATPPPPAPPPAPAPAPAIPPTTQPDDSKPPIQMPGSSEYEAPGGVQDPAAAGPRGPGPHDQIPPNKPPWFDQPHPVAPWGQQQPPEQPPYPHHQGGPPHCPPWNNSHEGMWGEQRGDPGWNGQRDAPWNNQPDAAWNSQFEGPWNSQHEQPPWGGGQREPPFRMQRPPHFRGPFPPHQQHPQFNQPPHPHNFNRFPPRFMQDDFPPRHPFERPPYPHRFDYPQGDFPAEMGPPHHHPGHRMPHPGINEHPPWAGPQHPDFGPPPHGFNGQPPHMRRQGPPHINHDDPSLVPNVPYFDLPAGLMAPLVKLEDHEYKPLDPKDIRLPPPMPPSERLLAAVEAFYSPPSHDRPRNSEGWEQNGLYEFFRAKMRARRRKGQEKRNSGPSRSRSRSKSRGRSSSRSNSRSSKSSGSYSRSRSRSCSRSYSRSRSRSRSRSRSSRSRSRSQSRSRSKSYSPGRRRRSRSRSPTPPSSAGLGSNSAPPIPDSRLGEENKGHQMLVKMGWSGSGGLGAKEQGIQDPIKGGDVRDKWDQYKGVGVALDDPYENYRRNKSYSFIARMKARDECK
# UniProt Q8IZN3: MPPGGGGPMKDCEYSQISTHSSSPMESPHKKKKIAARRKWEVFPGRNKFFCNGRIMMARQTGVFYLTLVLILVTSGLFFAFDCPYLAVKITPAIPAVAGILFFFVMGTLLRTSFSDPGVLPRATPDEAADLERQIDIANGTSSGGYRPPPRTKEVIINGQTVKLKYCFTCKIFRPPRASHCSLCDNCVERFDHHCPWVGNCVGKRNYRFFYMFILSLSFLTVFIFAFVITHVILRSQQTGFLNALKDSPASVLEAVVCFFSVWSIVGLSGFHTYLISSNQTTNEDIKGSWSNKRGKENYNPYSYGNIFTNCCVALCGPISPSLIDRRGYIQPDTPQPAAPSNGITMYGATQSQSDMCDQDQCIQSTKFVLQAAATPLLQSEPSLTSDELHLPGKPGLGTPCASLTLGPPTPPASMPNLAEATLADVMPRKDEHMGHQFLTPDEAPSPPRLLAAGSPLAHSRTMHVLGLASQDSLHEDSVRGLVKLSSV
# UniProt Q8IYI6: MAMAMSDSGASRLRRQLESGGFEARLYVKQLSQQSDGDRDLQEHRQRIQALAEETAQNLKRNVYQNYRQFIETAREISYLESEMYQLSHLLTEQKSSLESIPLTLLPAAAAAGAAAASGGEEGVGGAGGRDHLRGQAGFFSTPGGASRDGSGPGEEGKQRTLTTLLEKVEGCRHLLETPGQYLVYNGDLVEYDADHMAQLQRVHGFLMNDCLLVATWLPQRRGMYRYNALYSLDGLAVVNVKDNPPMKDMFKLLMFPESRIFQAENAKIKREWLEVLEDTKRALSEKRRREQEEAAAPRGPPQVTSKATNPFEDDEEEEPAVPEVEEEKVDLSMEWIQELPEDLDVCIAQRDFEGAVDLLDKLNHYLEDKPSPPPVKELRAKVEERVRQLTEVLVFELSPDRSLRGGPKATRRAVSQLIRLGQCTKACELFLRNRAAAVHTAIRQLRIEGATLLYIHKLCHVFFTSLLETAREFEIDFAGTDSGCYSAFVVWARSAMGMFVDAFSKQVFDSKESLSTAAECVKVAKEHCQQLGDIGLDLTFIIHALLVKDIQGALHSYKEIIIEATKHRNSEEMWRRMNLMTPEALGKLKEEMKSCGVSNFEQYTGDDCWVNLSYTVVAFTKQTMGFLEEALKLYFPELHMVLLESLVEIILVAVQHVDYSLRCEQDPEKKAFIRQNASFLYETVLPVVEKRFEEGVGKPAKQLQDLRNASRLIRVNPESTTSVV
# Some of the results follow. Small differences around the control level are noise.
# Compound: Cc1nc(Nc2ncc(C(=O)Nc3c(C)cccc3Cl)s2)cc(N2CCN(CCO)CC2)n1 [dasatinib]
# Experiment: log2 fold change of tryptic peptide abundance, ligand vs vehicle (limited proteolysis) (log2 ratio); higher = more trypsin-susceptible (destabilized)
# Conditions: ligand concentration: 5 uM; sample: K562 cleared lysate
row,Target,log2 fold change
1,"LONP2 (peptide sequence: EHILEDEK, peptide start residue: 602) (UniProt Q86WA8)",0.147
2,"PPARGC1B (peptide sequence: HATAQPASQAGQK, peptide start residue: 670) (UniProt Q86YN6)",-0.197
3,"UniProt Q86UX2 (peptide sequence: TITILINKPER, peptide start residue: 743)",-0.874
4,"UniProt Q8IX01 (peptide sequence: CSLKPEHR, peptide start residue: 371)",1.22
5,"ABCA7 (peptide sequence: MDIDVVTR, peptide start residue: 468) (UniProt Q8IZY2)",0.172
6,"HOMEZ (peptide sequence: TKEQLAILK, peptide start residue: 364) (UniProt Q8IX15)",0.135
7,"PROSER2 (peptide sequence: YLTHEEK, peptide start residue: 53) (UniProt Q86WR7)",0.377
8,"MON1A (peptide sequence: HVFVLSEAGKPVYSR, peptide start residue: 254) (UniProt Q86VX9)",0.338
9,"UniProt Q8N141 (peptide sequence: IEGQERPQEGYFSSVK, peptide start residue: 127)",-0.212
10,"FERMT3 (peptide sequence: HPEELSLLRAPEKK, peptide start residue: 135) (UniProt Q86UX7)",-0.198
11,"RNF168 (peptide sequence: GSPDEYHLR, peptide start residue: 469) (UniProt Q8IYW5)",0.175
12,"SGMS1 (peptide sequence: IKPNGMPNGYRK, peptide start residue: 102) (UniProt Q86VZ5)",0.26
13,"GSPT2 (peptide sequence: FVKQDQVCIAR, peptide start residue: 446) (UniProt Q8IYD1)",-0.16
14,"KLHL7 (peptide sequence: MCVDFLK, peptide start residue: 132) (UniProt Q8IXQ5)",-0.122
15,"PHC2 (peptide sequence: DLVGMGHHFLPSEPTK, peptide start residue: 778) (UniProt Q8IXK0)",-0.121
16,"LSR (peptide sequence: AMSEVTSLHEDDWR, peptide start residue: 430) (UniProt Q86X29)",0.122
17,"UniProt Q8IX21 (peptide sequence: QSIIDFFKPASK, peptide start residue: 49)",-0.27
18,"TAX1BP1 (peptide sequence: LQLCLAEK, peptide start residue: 325) (UniProt Q86VP1)",-0.629
19,"UniProt Q86WT1 (peptide sequence: VAFLLLDNPAYHSR, peptide start residue: 101)",-0.277

# Three consecutive records already listed, quoted:
row,Target,log2 fold change
5,"ABCA7 (peptide sequence: MDIDVVTR, peptide start residue: 468) (UniProt Q8IZY2)",0.172
6,"HOMEZ (peptide sequence: TKEQLAILK, peptide start residue: 364) (UniProt Q8IX15)",0.135
7,"PROSER2 (peptide sequence: YLTHEEK, peptide start residue: 53) (UniProt Q86WR7)",0.377

# (further entries)

row,Target,log2 fold change
1,"FBXO11 (peptide sequence: RTACPTKNSMEGASTSTTENFGHR, peptide start residue: 110) (UniProt Q86XK2)",-0.535
2,"UniProt Q8IUZ5 (peptide sequence: YLHDNIVDYAQR, peptide start residue: 84)",-0.484
3,"FAM83A (peptide sequence: SVEGEIYCAK, peptide start residue: 222) (UniProt Q86UY5)",-0.129
4,"GLCCI1 (peptide sequence: QPISAPLFSCPDKNK, peptide start residue: 436) (UniProt Q86VQ1)",0.196
5,"PDIK1L (peptide sequence: SQHPNVIHLEECILQK, peptide start residue: 62) (UniProt Q8N165)",-0.191
6,"UniProt Q86W11 (peptide sequence: ISQLPSQDR, peptide start residue: 247)",0.25
7,"ABI1 (peptide sequence: ALIESYQNLTR, peptide start residue: 18) (UniProt Q8IZP0)",0.089
8,"ALDH16A1 (peptide sequence: LLIQESVWDEAMRR, peptide start residue: 309) (UniProt Q8IZ83)",0.179
9,"RBM45 (peptide sequence: SYTEEDLREK, peptide start residue: 130) (UniProt Q8IUH3)",0.358
10,"CHERP (peptide sequence: LPPPMPPSER, peptide start residue: 676) (UniProt Q8IWX8)",-0.23
11,"UniProt Q86V71 (peptide sequence: SFCMLSQLTQHKK, peptide start residue: 181)",0.441
12,"NAV2 (peptide sequence: QNLEETMSSLR, peptide start residue: 270) (UniProt Q8IVL1)",0.0417
13,"UBR2 (peptide sequence: RGNPLHLCKER, peptide start residue: 1710) (UniProt Q8IWV8)",0.601
14,"UniProt Q8IUF8 (peptide sequence: QIWNSPAISVK, peptide start residue: 429)",0.461
15,"SIRT2 (peptide sequence: NLFSQTLSLGSQKER, peptide start residue: 43) (UniProt Q8IXJ6)",-0.216
16,"ZDHHC14 (peptide sequence: TMHVLGLASQDSLHEDSVR, peptide start residue: 462) (UniProt Q8IZN3)",0.353
17,"MAP7D3 (peptide sequence: IMPIQHTLSVQSASSTVK, peptide start residue: 542) (UniProt Q8IWC1)",0.297
18,"RCOR2 (peptide sequence: DFGAIAEVIGNK, peptide start residue: 350) (UniProt Q8IZ40)",0.512
19,"EXOC8 (peptide sequence: AAAVHTAIR, peptide start residue: 436) (UniProt Q8IYI6)",0.475
